The results in this text go back to patent publication US7767458B2, “Method for determining coagulation activation and device for carrying out said method” (Technoclone Gesellschaft m.b.H., priority 2005, dated 2010).

The subject of this data set is proteolyitic enzymes which cleave the fluoriginic substrate. Nature of the data set: Thrombin generation by fluorescence measurement in whole blood samples with added protease inhibitors. The data set is classed as biochemical. To be noted: anticoagulated whole blood, fluorigenic substrate; Aprotinin 3 concentrations (FIG. 10), Leupeptin 2 concentrations (FIG. 11).

Entries after “also recorded” stand apart in the source; their conditions may differ.

For the molecule `CC(=O)N[C@@H](CC(C)C)C(=O)N[C@@H](CC(C)C)C(=O)N[C@H](C=O)CCCNC(=N)N` [Leupeptin], the “interpretability of thrombin generation measured in whole blood” value is on record as “yielding a result that can be interpreted; also recorded: the results are interpretable”.
The result for Aprotinin reads “yielding a result that can be interpreted; also recorded: the results are interpretable”.
